# Some of the results follow.
# B1: EULS2 M3 (Oryza sativa) (protein)
# chain: MVYCRANPNYAMTARNGAVVLAPANPKDEYQHWIKDMRWSTSIKDEEGYPAFALVNKATGQAIKHSLGQSHPVRLVPYNPEVMDESVLWTESRDVGNGFRCIRMVNNIYLNFDAFHGDKYHGGVRDGTDIVLWKLCEGDSLRWKIQPYYILEQKLISEEDLNSAVDHHHHHH
# Tests used:
# Assay in all cases: glycan array binding signal (z-score within array); higher = stronger binding
# Conditions in all cases: glycan notation: IUPAC condensed, linker removed
# [1] = target: Glc(b1-6)Glc
# How it was run: (§1)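 Negative Z-scores can be read as non-binding. The Z-score is calculated within each array and then averaged across arrays of one protein sequence at different concentrations or buffers and across linkers. Arrays, 3228 in all, were curated from the Consortium for Functional Glycomics database and kept only where the protein sequence was available.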
# [2] = target: GlcA(b1-3)Gal
# How it was run: as §1
# [3] = target: GlcA(b1-3)GlcNAc
# How it was run: as §1
# [4] = target: GlcA(b1-6)Gal
# How it was run: as §1
# [5] = target: GlcA3S(b1-3)Gal(b1-4)GlcNAc(b1-2)Man
# How it was run: as §1
# [6] = target: GlcA3S(b1-3)Gal(b1-4)GlcNAc(b1-3)Gal(b1-4)Glc
# How it was run: as §1
# [7] = target: GlcNAc(a1-3)Gal(b1-4)GlcNAc
# How it was run: as §1
# [8] = target: GlcNAc(a1-4)Gal(b1-3)GlcNAc
# How it was run: as §1
# [9] = target: GlcNAc(a1-4)Gal(b1-4)GalNAc
# How it was run: as §1
# [10] = target: GlcNAc(a1-4)Gal(b1-4)GlcNAc
# How it was run: as §1
# [11] = target: GlcNAc(a1-4)Gal(b1-4)GlcNAc(b1-3)Gal(b1-4)Glc
# How it was run: as §1
# [12] = target: GlcNAc(a1-4)Gal(b1-4)GlcNAc(b1-3)Gal(b1-4)GlcNAc
# How it was run: as §1
# [13] = target: GlcNAc(a1-4)Gal(b1-4)GlcNAc(b1-3)Gal(b1-4)GlcNAc(b1-3)Gal(b1-4)GlcNAc
# How it was run: as §1
# [14] = target: GlcNAc(a1-4)Gal(b1-4)GlcNAc(b1-3)Gal(b1-4)[Fuc(a1-3)]GlcNAc(b1-3)Gal(b1-4)[Fuc(a1-3)]GlcNAc
# How it was run: as §1
# [15] = target: GlcNAc(a1-6)Gal(b1-4)GlcNAc
# How it was run: as §1
# [16] = target: GlcNAc(b1-2)Gal(b1-3)GalNAc
# How it was run: as §1
# [17] = target: GlcNAc(b1-2)Man(a1-3)[GlcNAc(b1-2)Man(a1-6)]Man(b1-4)GlcNAc(b1-4)GlcNAc
# How it was run: as §1
# [18] = target: GlcNAc(b1-2)Man(a1-3)[GlcNAc(b1-2)Man(a1-6)]Man(b1-4)GlcNAc(b1-4)[Fuc(a1-6)]GlcNAc
# How it was run: as §1
# [19] = target: GlcNAc(b1-2)Man(a1-3)[GlcNAc(b1-4)][GlcNAc(b1-2)Man(a1-6)]Man(b1-4)GlcNAc(b1-4)GlcNAc
# How it was run: as §1
# [20] = target: GlcNAc(b1-2)Man(a1-3)[GlcNAc(b1-4)][GlcNAc(b1-2)Man(a1-6)]Man(b1-4)GlcNAc(b1-4)[Fuc(a1-6)]GlcNAc
# How it was run: as §1
# [21] = target: GlcNAc(b1-2)[GlcNAc(b1-4)]Man(a1-3)[GlcNAc(b1-2)Man(a1-6)]Man(b1-4)GlcNAc(b1-4)GlcNAc
# How it was run: as §1
# [22] = target: GlcNAc(b1-2)[GlcNAc(b1-4)]Man(a1-3)[GlcNAc(b1-4)][GlcNAc(b1-2)Man(a1-6)]Man(b1-4)GlcNAc(b1-4)GlcNAc
# How it was run: as §1
# [23] = target: GlcNAc(b1-2)[GlcNAc(b1-4)]Man(a1-3)[GlcNAc(b1-4)][GlcNAc(b1-2)[GlcNAc(b1-6)]Man(a1-6)]Man(b1-4)GlcNAc(b1-4)GlcNAc
# How it was run: as §1
# [24] = target: GlcNAc(b1-2)[GlcNAc(b1-4)]Man(a1-3)[GlcNAc(b1-4)][GlcNAc(b1-2)[GlcNAc(b1-6)]Man(a1-6)]Man(b1-4)GlcNAc(b1-4)[Fuc(a1-6)]GlcNAc
# How it was run: as §1
# [25] = target: GlcNAc(b1-2)[GlcNAc(b1-6)]Man(a1-6)[GlcNAc(b1-2)Man(a1-3)]Man(b1-4)GlcNAc(b1-4)GlcNAc
# How it was run: as §1
# [26] = target: GlcNAc(b1-2)[GlcNAc(b1-6)]Man(a1-6)[GlcNAc(b1-2)Man(a1-3)]Man(b1-4)GlcNAc(b1-4)[Fuc(a1-6)]GlcNAc
# How it was run: as §1
# [27] = target: GlcNAc(b1-2)[GlcNAc(b1-6)]Man(a1-6)[GlcNAc(b1-4)][GlcNAc(b1-2)Man(a1-3)]Man(b1-4)GlcNAc(b1-4)GlcNAc
# How it was run: as §1
# [28] = target: GlcNAc(b1-3)Fuc
# How it was run: as §1
# [29] = target: GlcNAc(b1-3)Gal
# How it was run: as §1
# [30] = target: GlcNAc(b1-3)Gal(b1-3)GalNAc
# How it was run: as §1
# [31] = target: GlcNAc(b1-3)Gal(b1-4)Glc
# How it was run: as §1
# [32] = target: GlcNAc(b1-3)Gal(b1-4)GlcNAc
# How it was run: as §1
# [33] = target: GlcNAc(b1-3)Gal(b1-4)GlcNAc(b1-2)Man(a1-3)[GlcNAc(b1-3)Gal(b1-4)GlcNAc(b1-2)Man(a1-6)]Man(b1-4)GlcNAc(b1-4)GlcNAc
# How it was run: as §1
# [34] = target: GlcNAc(b1-3)Gal(b1-4)GlcNAc(b1-2)Man(a1-3)[GlcNAc(b1-3)Gal(b1-4)GlcNAc(b1-2)Man(a1-6)]Man(b1-4)GlcNAc(b1-4)[Fuc(a1-6)]GlcNAc
# How it was run: as §1
# [35] = target: GlcNAc(b1-3)Gal(b1-4)GlcNAc(b1-2)[GlcNAc(b1-3)Gal(b1-4)GlcNAc(b1-6)]Man(a1-6)[GlcNAc(b1-3)Gal(b1-4)GlcNAc(b1-2)Man(a1-3)]Man(b1-4)GlcNAc(b1-4)GlcNAc
# How it was run: as §1
# [36] = target: GlcNAc(b1-3)Gal(b1-4)GlcNAc(b1-3)Gal(b1-4)GlcNAc
# How it was run: as §1
# [37] = target: GlcNAc(b1-3)Gal(b1-4)GlcNAc(b1-3)Gal(b1-4)GlcNAc(b1-2)Man(a1-3)[GlcNAc(b1-3)Gal(b1-4)GlcNAc(b1-3)Gal(b1-4)GlcNAc(b1-2)Man(a1-6)]Man(b1-4)GlcNAc(b1-4)GlcNAc
# How it was run: as §1
# [38] = target: GlcNAc(b1-3)Gal(b1-4)GlcNAc(b1-3)Gal(b1-4)GlcNAc(b1-2)Man(a1-3)[GlcNAc(b1-3)Gal(b1-4)GlcNAc(b1-3)Gal(b1-4)GlcNAc(b1-2)Man(a1-6)]Man(b1-4)GlcNAc(b1-4)[Fuc(a1-6)]GlcNAc
# How it was run: as §1
# [39] = target: GlcNAc(b1-3)Gal(b1-4)GlcNAc(b1-3)Gal(b1-4)GlcNAc(b1-2)[GlcNAc(b1-3)Gal(b1-4)GlcNAc(b1-3)Gal(b1-4)GlcNAc(b1-6)]Man(a1-6)[GlcNAc(b1-3)Gal(b1-4)GlcNAc(b1-3)Gal(b1-4)GlcNAc(b1-2)Man(a1-3)]Man(b1-4)GlcNAc(b1-4)[Fuc(a1-6)]GlcNAc
# How it was run: as §1
# [40] = target: GlcNAc(b1-3)Gal(b1-4)GlcNAc(b1-3)Gal(b1-4)GlcNAc(b1-3)Gal(b1-4)GlcNAc(b1-2)Man(a1-3)[GlcNAc(b1-3)Gal(b1-4)GlcNAc(b1-3)Gal(b1-4)GlcNAc(b1-3)Gal(b1-4)GlcNAc(b1-2)Man(a1-6)]Man(b1-4)GlcNAc(b1-4)GlcNAc
# How it was run: as §1
# [41] = target: GlcNAc(b1-3)Gal(b1-4)GlcNAc(b1-3)Gal(b1-4)GlcNAc(b1-3)Gal(b1-4)GlcNAc(b1-2)Man(a1-3)[GlcNAc(b1-3)Gal(b1-4)GlcNAc(b1-3)Gal(b1-4)GlcNAc(b1-3)Gal(b1-4)GlcNAc(b1-2)Man(a1-6)]Man(b1-4)GlcNAc(b1-4)[Fuc(a1-6)]GlcNAc
# How it was run: as §1
# [42] = target: GlcNAc(b1-3)Gal(b1-4)GlcNAc(b1-3)Gal(b1-4)GlcNAc(b1-3)Gal(b1-4)GlcNAc(b1-2)[GlcNAc(b1-3)Gal(b1-4)GlcNAc(b1-3)Gal(b1-4)GlcNAc(b1-3)Gal(b1-4)GlcNAc(b1-6)]Man(a1-6)[GlcNAc(b1-3)Gal(b1-4)GlcNAc(b1-3)Gal(b1-4)GlcNAc(b1-3)Gal(b1-4)GlcNAc(b1-2)Man(a1-3)]Man(b1-4)GlcNAc(b1-4)[Fuc(a1-6)]GlcNAc
# How it was run: as §1
# [43] = target: GlcNAc(b1-3)Gal(b1-4)GlcNAc(b1-3)Gal(b1-4)GlcNAc(b1-3)Gal(b1-4)GlcNAc(b1-3)Gal(b1-4)GlcNAc(b1-2)Man(a1-3)[GlcNAc(b1-3)Gal(b1-4)GlcNAc(b1-3)Gal(b1-4)GlcNAc(b1-3)Gal(b1-4)GlcNAc(b1-3)Gal(b1-4)GlcNAc(b1-2)Man(a1-6)]Man(b1-4)GlcNAc(b1-4)GlcNAc
# How it was run: as §1
# [44] = target: GlcNAc(b1-3)Gal(b1-4)GlcNAc(b1-3)Gal(b1-4)GlcNAc(b1-3)Gal(b1-4)GlcNAc(b1-3)Gal(b1-4)GlcNAc(b1-2)Man(a1-3)[GlcNAc(b1-3)Gal(b1-4)GlcNAc(b1-3)Gal(b1-4)GlcNAc(b1-3)Gal(b1-4)GlcNAc(b1-3)Gal(b1-4)GlcNAc(b1-2)Man(a1-6)]Man(b1-4)GlcNAc(b1-4)[Fuc(a1-6)]GlcNAc
# How it was run: as §1
# [45] = target: GlcNAc(b1-3)Gal(b1-4)GlcNAc(b1-3)Gal(b1-4)GlcNAc(b1-3)Gal(b1-4)GlcNAc(b1-3)Gal(b1-4)GlcNAc(b1-2)[GlcNAc(b1-3)Gal(b1-4)GlcNAc(b1-3)Gal(b1-4)GlcNAc(b1-3)Gal(b1-4)GlcNAc(b1-3)Gal(b1-4)GlcNAc(b1-6)]Man(a1-6)[GlcNAc(b1-3)Gal(b1-4)GlcNAc(b1-3)Gal(b1-4)GlcNAc(b1-3)Gal(b1-4)GlcNAc(b1-3)Gal(b1-4)GlcNAc(b1-2)Man(a1-3)]Man(b1-4)GlcNAc(b1-4)[Fuc(a1-6)]GlcNAc
# How it was run: as §1
binder,measurement,setting,value
B1,glycan array binding signal (z-score),[1],0.98
same,glycan array binding signal (z-score),[2],-0.351
same,glycan array binding signal (z-score),[3],0.754
same,glycan array binding signal (z-score),[4],-0.196
same,glycan array binding signal (z-score),[5],-0.34
same,glycan array binding signal (z-score),[6],-0.299
same,glycan array binding signal (z-score),[7],-0.405
same,glycan array binding signal (z-score),[8],-0.205
same,glycan array binding signal (z-score),[9],-0.436
same,glycan array binding signal (z-score),[10],-0.386
same,glycan array binding signal (z-score),[11],0.298
same,glycan array binding signal (z-score),[12],-0.177
same,glycan array binding signal (z-score),[13],-0.139
same,glycan array binding signal (z-score),[14],-0.574
same,glycan array binding signal (z-score),[15],0.062
same,glycan array binding signal (z-score),[16],0
same,glycan array binding signal (z-score),[17],-0.688
same,glycan array binding signal (z-score),[18],-0.546
same,glycan array binding signal (z-score),[19],-0.465
same,glycan array binding signal (z-score),[20],-0.359
same,glycan array binding signal (z-score),[21],-0.165
same,glycan array binding signal (z-score),[22],-0.58
same,glycan array binding signal (z-score),[23],-0.387
same,glycan array binding signal (z-score),[24],-0.223
same,glycan array binding signal (z-score),[25],-1.08
same,glycan array binding signal (z-score),[26],-0.281
same,glycan array binding signal (z-score),[27],0.427
same,glycan array binding signal (z-score),[28],-0.679
same,glycan array binding signal (z-score),[29],0.402
same,glycan array binding signal (z-score),[30],-0.321
same,glycan array binding signal (z-score),[31],-0.168
same,glycan array binding signal (z-score),[32],-0.359
same,glycan array binding signal (z-score),[33],-0.171
same,glycan array binding signal (z-score),[34],0.353
same,glycan array binding signal (z-score),[35],0.562
same,glycan array binding signal (z-score),[36],-0.273
same,glycan array binding signal (z-score),[37],0.743
same,glycan array binding signal (z-score),[38],-0.12
same,glycan array binding signal (z-score),[39],0.584
same,glycan array binding signal (z-score),[40],-0.02
same,glycan array binding signal (z-score),[41],0.151
same,glycan array binding signal (z-score),[42],0.306
same,glycan array binding signal (z-score),[43],0.326
same,glycan array binding signal (z-score),[44],0.453
same,glycan array binding signal (z-score),[45],-0.05

# 10 neighbouring entries out of the list so far, quoted:
binder,measurement,setting,value
B1,glycan array binding signal (z-score),[32],-0.359
same,glycan array binding signal (z-score),[33],-0.171
same,glycan array binding signal (z-score),[34],0.353
same,glycan array binding signal (z-score),[35],0.562
same,glycan array binding signal (z-score),[36],-0.273
same,glycan array binding signal (z-score),[37],0.743
same,glycan array binding signal (z-score),[38],-0.12
same,glycan array binding signal (z-score),[39],0.584
same,glycan array binding signal (z-score),[40],-0.02
same,glycan array binding signal (z-score),[41],0.151

# — the supplement of paper PMC8728848
